Measurements from patent publication US20110251229A1 (priority 2007, published 2011).

Sequences of proteins named here, by UniProt entry; tags and fusion partners are left off. Residues count along the entry.
UniProt O00206, 24-839: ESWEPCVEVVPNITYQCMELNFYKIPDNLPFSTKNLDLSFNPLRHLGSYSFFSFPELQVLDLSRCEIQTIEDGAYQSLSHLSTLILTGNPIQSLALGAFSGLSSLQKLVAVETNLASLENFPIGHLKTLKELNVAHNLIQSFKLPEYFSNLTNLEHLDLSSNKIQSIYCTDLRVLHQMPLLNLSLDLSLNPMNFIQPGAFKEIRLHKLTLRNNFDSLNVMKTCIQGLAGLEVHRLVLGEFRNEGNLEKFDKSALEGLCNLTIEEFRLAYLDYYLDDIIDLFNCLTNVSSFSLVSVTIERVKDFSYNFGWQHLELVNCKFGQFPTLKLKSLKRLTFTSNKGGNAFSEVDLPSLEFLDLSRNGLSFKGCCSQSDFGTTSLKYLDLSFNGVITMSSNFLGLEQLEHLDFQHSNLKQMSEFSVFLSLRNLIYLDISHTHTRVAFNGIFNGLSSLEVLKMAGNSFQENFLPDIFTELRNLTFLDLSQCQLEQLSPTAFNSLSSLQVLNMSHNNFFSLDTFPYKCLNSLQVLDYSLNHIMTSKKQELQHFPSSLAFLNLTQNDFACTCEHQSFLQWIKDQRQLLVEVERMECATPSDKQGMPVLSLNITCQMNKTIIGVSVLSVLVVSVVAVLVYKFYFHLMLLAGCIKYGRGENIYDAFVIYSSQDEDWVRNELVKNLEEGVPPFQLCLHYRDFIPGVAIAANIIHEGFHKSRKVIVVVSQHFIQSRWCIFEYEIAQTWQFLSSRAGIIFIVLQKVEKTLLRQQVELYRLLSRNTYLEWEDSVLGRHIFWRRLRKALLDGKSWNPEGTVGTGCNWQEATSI

Key:
[1] = tested on: isolated microglial TLR4 mRNA; conditions: in vitro incubation 2 hr
human TLR4 = target: T1, human TLR4 (Homo sapiens, UniProt O00206); assay type: cell-based
T1 construct: host or cells: HEK 293

CN1CC[C@]23c4c5ccc(O)c4O[C@H]2[C@@H](O)C=C[C@H]3[C@H]1C5.O=S(=O)(O)O [morphine, (−)-Morphine sulfate]
isolated microglial TLR4 mRNA expression [1]: dose dependently increased
TLR4 agonist activity (human TLR4): TLR4 agonists
